Assay results: US20050266509A1, “Interaction of NMDA receptor with protein tyrosine phosphatase” (AGY Therapeutics, Inc., priority 2003, published 2005)
Results are given in words; binding and its absence hold for the method and conditions named. Binding seen in cells or lysates may run through a third protein. Some results given as binding are weak or reduced against the parent protein; the word gives no strength.

Chains of the proteins cited; added tags and fusions are not shown. Residues count along the entry.
UniProt Q13224, residues 27-1484: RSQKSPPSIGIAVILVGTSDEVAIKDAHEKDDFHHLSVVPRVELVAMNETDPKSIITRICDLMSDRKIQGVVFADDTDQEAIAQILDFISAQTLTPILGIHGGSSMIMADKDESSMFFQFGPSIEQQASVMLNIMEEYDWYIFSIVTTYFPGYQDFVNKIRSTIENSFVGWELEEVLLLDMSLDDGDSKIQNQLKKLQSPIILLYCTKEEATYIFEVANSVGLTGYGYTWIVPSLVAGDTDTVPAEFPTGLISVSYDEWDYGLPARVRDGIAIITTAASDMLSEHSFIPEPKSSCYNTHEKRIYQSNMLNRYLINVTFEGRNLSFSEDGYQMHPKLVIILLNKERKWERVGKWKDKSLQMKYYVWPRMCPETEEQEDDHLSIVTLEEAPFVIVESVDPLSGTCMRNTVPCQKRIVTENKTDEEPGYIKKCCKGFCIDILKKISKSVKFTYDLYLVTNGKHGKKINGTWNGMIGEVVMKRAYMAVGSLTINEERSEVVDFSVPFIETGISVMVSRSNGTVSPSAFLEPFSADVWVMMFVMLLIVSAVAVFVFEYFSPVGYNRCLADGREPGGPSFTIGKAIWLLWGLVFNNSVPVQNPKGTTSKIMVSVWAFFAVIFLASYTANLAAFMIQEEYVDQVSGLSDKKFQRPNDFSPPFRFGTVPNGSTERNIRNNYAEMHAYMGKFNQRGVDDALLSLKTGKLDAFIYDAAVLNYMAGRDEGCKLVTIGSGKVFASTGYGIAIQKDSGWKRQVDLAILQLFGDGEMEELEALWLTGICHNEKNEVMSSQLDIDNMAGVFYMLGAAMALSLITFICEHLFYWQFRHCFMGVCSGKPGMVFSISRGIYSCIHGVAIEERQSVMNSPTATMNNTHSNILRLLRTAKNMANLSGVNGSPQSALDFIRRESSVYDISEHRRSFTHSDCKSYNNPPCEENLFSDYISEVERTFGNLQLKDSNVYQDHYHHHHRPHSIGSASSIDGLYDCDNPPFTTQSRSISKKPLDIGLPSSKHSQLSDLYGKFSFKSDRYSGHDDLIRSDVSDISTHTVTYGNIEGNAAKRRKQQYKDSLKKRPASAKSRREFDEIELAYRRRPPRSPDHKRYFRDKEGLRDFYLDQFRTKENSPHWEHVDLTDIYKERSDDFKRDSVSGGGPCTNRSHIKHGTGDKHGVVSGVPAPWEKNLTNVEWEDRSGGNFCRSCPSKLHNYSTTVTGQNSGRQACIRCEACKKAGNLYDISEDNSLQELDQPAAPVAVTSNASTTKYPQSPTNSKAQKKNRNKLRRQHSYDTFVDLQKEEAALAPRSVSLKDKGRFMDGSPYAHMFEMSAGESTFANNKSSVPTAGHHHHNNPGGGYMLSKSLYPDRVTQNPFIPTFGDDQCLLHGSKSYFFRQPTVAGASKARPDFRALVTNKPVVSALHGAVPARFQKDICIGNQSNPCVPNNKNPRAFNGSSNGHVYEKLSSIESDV
UniProt P29074: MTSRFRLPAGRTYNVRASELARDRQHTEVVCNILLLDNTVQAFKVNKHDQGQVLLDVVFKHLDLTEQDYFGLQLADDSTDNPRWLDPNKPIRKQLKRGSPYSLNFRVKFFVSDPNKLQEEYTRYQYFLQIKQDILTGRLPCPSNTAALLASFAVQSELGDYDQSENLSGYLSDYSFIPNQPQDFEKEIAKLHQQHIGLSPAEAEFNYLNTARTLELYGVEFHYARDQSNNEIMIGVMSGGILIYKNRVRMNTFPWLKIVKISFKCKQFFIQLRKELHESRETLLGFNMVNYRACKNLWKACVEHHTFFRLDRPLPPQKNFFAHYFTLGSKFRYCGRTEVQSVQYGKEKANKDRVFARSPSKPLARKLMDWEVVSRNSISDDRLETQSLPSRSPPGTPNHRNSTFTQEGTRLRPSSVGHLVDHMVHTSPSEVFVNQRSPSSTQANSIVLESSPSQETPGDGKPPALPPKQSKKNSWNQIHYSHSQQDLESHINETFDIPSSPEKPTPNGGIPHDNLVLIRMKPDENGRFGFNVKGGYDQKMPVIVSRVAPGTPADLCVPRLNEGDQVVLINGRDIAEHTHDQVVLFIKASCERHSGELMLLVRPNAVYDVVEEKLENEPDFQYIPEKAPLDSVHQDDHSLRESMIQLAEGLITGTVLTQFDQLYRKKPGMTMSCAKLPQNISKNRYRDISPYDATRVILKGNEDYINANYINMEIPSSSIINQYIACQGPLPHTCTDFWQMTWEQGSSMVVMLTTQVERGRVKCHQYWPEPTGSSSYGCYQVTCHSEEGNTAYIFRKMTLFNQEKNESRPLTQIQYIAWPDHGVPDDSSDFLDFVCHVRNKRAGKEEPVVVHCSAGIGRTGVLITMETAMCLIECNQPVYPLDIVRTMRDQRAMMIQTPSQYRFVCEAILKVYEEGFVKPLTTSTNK

How the values were obtained:
[1] = biological target: NR2B, full length clone (NMDA receptor subunit) (UniProt Q13224); assay: co-immunoprecipitation from lysates of co-transfected 293 cells, Western blot
[2] = biological target: NR2A, full length clone (NMDA receptor subunit) (UniProt Q12879); assay: as above

- binding [1]: binds
- binding [2]: binds
Substance: PTPMEG, full length clone (amino-terminal myc-tag, c-terminal HA tag) (from UniProt P29074 1-926) (enzyme)
